Literature values, collected in patent US8278451B2, “Pseudoazulenyl nitrones” (The Florida International University Board of Trustees, priority 2006, dated 2012).
Some results were stated once for a whole list of compounds, not compound by compound. At least one compound was matched to its structure with a doubt left.

SMILES: CC1(C)CCC=[N+]1[O-] [DMPO, dimethylpyrroline N-oxide]
- oxidative potentials: 1.5-2.0 V
